Measured values taken from patent publication US20240150473A1, “MODULATION OF WNT SIGNALING IN GASTROINTESTINAL DISORDERS” (Surrozen Operating, Inc., priority 2021, published 2024).
These are yes or no findings as the source states them, for the method shown. Some entries that bind do so weakly or less than the wild type.

Target: T1, biotinylated LRP6E3E4 (UniProt O75581)
T1 sequence (biotinylated (site not stated), looked up): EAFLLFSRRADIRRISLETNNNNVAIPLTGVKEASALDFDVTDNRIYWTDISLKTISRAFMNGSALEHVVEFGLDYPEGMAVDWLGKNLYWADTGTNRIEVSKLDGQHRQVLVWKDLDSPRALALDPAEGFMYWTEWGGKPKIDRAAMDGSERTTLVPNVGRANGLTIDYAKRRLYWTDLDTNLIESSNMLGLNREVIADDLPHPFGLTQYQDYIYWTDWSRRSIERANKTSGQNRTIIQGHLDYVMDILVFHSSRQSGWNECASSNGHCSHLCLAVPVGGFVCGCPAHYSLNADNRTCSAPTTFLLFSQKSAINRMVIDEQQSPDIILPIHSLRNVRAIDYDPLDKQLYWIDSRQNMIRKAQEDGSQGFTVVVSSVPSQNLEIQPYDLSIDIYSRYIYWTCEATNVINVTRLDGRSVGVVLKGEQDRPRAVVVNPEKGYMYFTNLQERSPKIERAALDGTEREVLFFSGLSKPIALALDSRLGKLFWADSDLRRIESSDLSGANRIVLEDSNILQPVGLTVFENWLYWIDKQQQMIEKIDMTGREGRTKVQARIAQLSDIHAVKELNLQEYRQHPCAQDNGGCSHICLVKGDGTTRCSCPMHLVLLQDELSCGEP
Assay: BLI (Octet), Lrp6E3E4 domain

B1: VHH26-H5 (VHH)
VHH: EVQLVESGGGLVQPGGSLRLSCAGSGRIFAIYDIAWYRQAPGKGREWVAMIRPVVTEIDYADSVKGRFTISRDNSKKTVYLQMNSLRAEDTAVYYCNAKRPWGSRDEYWGQGTTVTVSS
Which binding does the source give for B1 here?
Its binding is “binds”.
